Our source for the step yield values is patent publication US8063181B2 (ZYRUS Beteiligungsgesellschaft mbH & Co. Patent I KG, priority 2003, dated 2011).

[ ]: non-standard residue; d: D form. dOrn = NCCC[C@@H](N)C(=O)O

This data set can be described thus: general procedure: peptide synthesis; DCC/HOBt (leaving group coupling). The note with it: late stage modification step.

Regarding Ac-E[dOrn]Y[dT]E[dA]PQ[dY]I-OH, the step yield entry was “between 70 and 80%”.
